From article doi:10.1101/2021.04.11.439364
These are yes or no findings as the source states them, for the method shown. In cells and extracts the contact can be indirect. Some entries that bind do so weakly or less than the wild type.

Chains of the proteins cited; added tags and fusions are not shown. Lines headed by an entry give the natural chain unless they say otherwise; changes in a name come on top. Residues count along the entry.
UniProt P16671: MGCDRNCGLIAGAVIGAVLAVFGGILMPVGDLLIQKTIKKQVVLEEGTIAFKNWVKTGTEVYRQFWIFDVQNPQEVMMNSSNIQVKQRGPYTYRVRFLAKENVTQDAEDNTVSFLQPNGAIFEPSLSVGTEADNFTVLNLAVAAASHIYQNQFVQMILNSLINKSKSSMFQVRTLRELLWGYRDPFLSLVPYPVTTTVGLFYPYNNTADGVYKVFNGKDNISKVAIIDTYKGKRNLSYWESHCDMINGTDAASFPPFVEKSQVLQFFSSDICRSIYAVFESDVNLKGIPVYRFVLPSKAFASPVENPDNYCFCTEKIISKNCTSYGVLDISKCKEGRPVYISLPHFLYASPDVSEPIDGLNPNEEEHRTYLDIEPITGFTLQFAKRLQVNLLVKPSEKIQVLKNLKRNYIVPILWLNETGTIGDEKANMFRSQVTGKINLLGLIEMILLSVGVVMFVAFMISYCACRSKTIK
UniProt P06213: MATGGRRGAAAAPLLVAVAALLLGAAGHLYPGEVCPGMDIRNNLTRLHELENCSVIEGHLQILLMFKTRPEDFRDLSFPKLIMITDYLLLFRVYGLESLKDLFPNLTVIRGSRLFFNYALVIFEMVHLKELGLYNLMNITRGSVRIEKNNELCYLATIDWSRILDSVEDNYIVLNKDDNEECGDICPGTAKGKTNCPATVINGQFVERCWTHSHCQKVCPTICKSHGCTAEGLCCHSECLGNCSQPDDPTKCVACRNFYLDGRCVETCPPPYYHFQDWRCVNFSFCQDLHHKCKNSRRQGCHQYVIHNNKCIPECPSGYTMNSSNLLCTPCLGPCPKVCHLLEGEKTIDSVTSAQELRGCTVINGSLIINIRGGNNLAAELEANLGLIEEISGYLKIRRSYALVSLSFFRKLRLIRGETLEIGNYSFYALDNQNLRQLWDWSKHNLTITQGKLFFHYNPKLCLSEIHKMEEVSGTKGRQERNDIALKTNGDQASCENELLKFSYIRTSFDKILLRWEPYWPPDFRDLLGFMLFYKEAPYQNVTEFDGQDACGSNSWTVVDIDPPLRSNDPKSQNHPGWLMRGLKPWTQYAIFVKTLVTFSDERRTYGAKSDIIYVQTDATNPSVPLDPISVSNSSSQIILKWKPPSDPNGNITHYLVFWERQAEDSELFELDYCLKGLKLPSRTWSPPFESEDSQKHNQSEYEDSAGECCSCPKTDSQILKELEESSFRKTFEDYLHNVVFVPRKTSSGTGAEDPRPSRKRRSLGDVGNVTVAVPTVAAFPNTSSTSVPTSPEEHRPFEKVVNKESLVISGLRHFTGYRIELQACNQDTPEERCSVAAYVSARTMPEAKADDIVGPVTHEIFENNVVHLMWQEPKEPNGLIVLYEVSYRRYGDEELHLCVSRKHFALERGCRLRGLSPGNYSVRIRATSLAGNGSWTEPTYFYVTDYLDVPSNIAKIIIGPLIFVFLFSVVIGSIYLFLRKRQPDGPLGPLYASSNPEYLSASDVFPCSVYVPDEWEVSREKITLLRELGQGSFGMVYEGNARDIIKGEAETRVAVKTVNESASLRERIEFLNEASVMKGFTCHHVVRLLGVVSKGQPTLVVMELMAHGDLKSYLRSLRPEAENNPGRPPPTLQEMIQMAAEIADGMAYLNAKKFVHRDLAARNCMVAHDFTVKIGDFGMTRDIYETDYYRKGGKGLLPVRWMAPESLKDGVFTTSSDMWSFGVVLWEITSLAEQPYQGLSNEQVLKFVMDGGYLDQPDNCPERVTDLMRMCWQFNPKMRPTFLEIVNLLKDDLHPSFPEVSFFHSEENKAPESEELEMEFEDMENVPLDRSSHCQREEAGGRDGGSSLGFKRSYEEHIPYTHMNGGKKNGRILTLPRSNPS
UniProt P35951, residues 22-862: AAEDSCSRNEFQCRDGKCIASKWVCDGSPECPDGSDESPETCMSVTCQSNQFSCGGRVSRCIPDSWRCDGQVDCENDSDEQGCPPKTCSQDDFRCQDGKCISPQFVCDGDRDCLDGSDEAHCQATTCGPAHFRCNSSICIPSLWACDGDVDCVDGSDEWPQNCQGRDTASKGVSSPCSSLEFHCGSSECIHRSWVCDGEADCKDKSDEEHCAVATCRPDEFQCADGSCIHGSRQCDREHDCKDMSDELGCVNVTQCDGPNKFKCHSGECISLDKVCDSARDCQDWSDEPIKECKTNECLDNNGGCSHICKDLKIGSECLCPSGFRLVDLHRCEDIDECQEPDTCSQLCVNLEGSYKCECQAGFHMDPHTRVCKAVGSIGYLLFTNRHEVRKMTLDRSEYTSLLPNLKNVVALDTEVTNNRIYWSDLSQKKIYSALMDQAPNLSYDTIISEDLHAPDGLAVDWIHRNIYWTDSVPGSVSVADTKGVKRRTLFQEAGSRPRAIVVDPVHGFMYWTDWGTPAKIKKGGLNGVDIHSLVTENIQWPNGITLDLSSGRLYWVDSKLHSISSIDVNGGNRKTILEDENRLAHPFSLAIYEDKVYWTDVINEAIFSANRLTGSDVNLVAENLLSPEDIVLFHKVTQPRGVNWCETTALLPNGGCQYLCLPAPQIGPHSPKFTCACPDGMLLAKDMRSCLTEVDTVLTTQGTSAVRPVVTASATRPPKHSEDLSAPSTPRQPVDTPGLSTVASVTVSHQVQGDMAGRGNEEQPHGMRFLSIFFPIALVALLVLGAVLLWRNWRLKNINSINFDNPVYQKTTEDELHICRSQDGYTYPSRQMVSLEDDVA

Tests used:
[1] = molecular target: T1, asialoglycoprotein receptor 1 (ASGR1), endogenous, human (human (endogenous in HepG2-PCSK9-KO)) (UniProt P07306); assay: co-IP
T1 sequence: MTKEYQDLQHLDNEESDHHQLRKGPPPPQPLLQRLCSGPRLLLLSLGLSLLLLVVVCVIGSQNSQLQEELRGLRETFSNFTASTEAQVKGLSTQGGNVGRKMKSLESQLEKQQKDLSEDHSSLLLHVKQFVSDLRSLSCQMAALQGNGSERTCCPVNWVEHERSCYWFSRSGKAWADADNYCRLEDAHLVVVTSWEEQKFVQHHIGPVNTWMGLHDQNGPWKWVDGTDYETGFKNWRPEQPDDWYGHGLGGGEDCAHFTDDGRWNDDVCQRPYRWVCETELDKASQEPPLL

[2] = molecular target: T2, ASGR1, endogenous, mouse liver (mouse (endogenous in liver)) (UniProt P34927); assay: co-IP
T2 sequence: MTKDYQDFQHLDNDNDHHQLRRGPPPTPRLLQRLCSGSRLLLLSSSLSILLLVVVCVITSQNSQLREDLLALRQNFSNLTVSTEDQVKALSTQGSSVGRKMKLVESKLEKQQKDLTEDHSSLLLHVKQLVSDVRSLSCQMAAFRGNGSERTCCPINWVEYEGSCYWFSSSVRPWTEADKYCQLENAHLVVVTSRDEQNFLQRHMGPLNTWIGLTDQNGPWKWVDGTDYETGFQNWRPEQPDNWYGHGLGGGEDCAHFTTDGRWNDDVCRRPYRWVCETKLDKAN

binding [1] | binding [2] | Substance
no binding |  | CD36, endogenous, human (from UniProt P16671 1-472) (receptor)
no binding |  | insulin receptor (IR), endogenous, human (from UniProt P06213)
 | binds | LDLR, endogenous, mouse liver (from UniProt P35951 22-862) (receptor)
